Single values of this data set are uncertain.
B1: human tRNA-Pro; a variant is named by its letters at N, in order (parent)
chain: GGCTCGTTGGTCTAGNGGTATGATTCTCGCTTAGGGTGCGAGAGGTCCCGGGTTCNNATCCCGGACGAGCCC

How the values were obtained:
[1] = variants of: B1; test: tRNA Pol-III promoter activity, log2 (circRNA frequency / plasmid DNA frequency) (log2 ratio); higher = stronger promoter activity; conditions: HEK293T; construct: no Pol-II promoter ((-)CMV library)
[2] = variants of: B1; test: tRNA 3' processing efficiency (processed reads / all reads, maximum-likelihood estimate) (fraction); higher = more efficient 3' processing; conditions: HEK293T; construct: no Pol-II promoter ((-)CMV library)
[3] = variants of: B1; test: tRNA 5' processing efficiency (processed reads / all reads, maximum-likelihood estimate) (fraction); higher = more efficient 5' processing; conditions: HEK293T; construct: CMV Pol-II promoter ((+)CMV library, decapped)

Variant	tRNA Pol-III promoter activity (log2) [1]	tRNA 3' processing efficiency [2]	tRNA 5' processing efficiency [3]
GAA A20G	-3.93	0.78	0.29
GAA A20T	1.08	0.45	0.4
GAA A20T A58G T59G	4.3	0.17	–
GAA A20T A58G T59C	4.45	0.17	–
GAA A20C T59C	2.1	0.22	–
GAA A20T A58G	1.63	0.22	0.25
GAA A20T A58T	-0.511	0.49	–
GAA A20T A58C	0.995	0.18	0.25
GAA A33G	8.1	0.32	–
GAA A20T T54A	2.77	0.29	–
TAA A20T C55T	2.18	0.2	–
GAA A20T T53A T59A	2.84	0.14	–
GAA A20T T53A T59C	7.34	0.26	–
GAA A20G G50A	3.94	0.25	–
GAA A20G A58C T59A	5.03	0.5	–
GAA A20G A58C T59G	2.23	0.25	–
AAA A58T T59A	4.65	0.41	–
GAA A20T A58C T59C	6.11	0.11	–
GAA A20T A58C T59A	5.26	0.43	–
CAA A20T T59A	3.38	0.12	–
GAA A20T C55G	0.292	0.22	0.25
GAA A20T C55T	-0.55	0.48	–

5 neighbouring entries already listed:
Variant	tRNA Pol-III promoter activity (log2) [1]	tRNA 3' processing efficiency [2]	tRNA 5' processing efficiency [3]
AAA A58T T59A	4.65	0.41	–
GAA A20T A58C T59C	6.11	0.11	–
GAA A20T A58C T59A	5.26	0.43	–
CAA A20T T59A	3.38	0.12	–
GAA A20T C55G	0.292	0.22	0.25

Next records follow:

Variant	tRNA Pol-III promoter activity (log2) [1]	tRNA 3' processing efficiency [2]	tRNA 5' processing efficiency [3]
CAA A20T	-0.38	0.33	–
CAA A20G	0.357	0.33	–
CAA A20T A58G	2.93	0.4	–
CAA A20T A58T	2.62	0.25	–
AAA A58G T59C	5.03	0.33	–
GAA A20G A58G	0.994	0.58	0.83
GAA A20G A58T	0.863	0.34	–
GAA A20G A58C	2.24	0.73	–
GAA A20T T53A A58T	3.26	0.5	–
GAA A20T T53A A58G	3.94	0.25	–
AAA A20G T53A	4.64	0.38	–
GAA A58T T59A	3.25	0.36	–
GAA A20G A58G T59C	5.39	0.32	–
GAA A20C T54G	1.69	0.75	–
AAA A20T T53A	3.71	0.13	–
GAA A20G A58T T59A	3.94	0.25	–
GAA A20G A58T T59G	4.78	0.22	–
GAA A20G A58T T59C	6.84	0.57	–
AAA A20G A58G	2.83	0.26	–
CAA A58C T59A	6.74	0.43	–
CAA A58C T59G	4.51	0.5	–
TAA A20T T59G	3.93	0.62	–

Variant	tRNA Pol-III promoter activity (log2) [1]	tRNA 3' processing efficiency [2]	tRNA 5' processing efficiency [3]
TAA A20G T53A	2.55	0.38	–
GAA A58C T59A	1.04	0.31	–
GAA A58C T59G	1.55	0.4	0.15
GAA A58C T59C	3.54	0.2	–
AAA A20G T59C	2.93	0.25	–
TAA A20C T59G	4.25	0.4	–
GAA A20T T54C T59A	3.68	0.4	–
GAA A20G T59A	2.53	0.5	–
GAA A20G T59C	0.884	0.25	–
GAA A20G T53A T59G	3.67	0.2	–
CAA A20G C55T	5.56	0.04	–
AAA A20G	-0.438	0.4	–
AAA A20T	0.78	0.67	0.29
TAA A20G T54A	3.05	0.5	–
CAA A20T T53G	7.4	0.73	–
GAA A20G T53A T54A	4.45	0.25	–
GAA A20T C55T A58C	3.23	0.73	–
GAA A20G T53C A58T	3.26	0.2	–
TAA A20G T53A A58T	6.03	0.25	–
TAA A20T T53A	7.06	0.11	–
TAA A20G A58G	2.68	0.13	–
TAA A20G A58T	3.85	0.87	0.5

Variant	tRNA Pol-III promoter activity (log2) [1]	tRNA 3' processing efficiency [2]	tRNA 5' processing efficiency [3]
CAA A43T	3.71	0.25	–
GAA A20T A58T T59C	2.25	0.2	–
AAA A20G T54A	2.76	0.25	–
TAA A58T T59A	3.68	0.4	–
CAA A58G	0.253	0.25	–
CAA A58C	1.7	0.5	–
CAA A58T	0.761	0.3	–
GAA A20T T59G	1.18	0.32	–
GAA A20T T59C	4.34	0.35	–
GAA A20T T59A	0.624	0.31	–
GAA A33G A58G	5.41	0.36	–
TAA A20T	-0.993	0.4	0.33
TAA A20G	-1.07	0.25	0.14
AAA A20T A58G T59G	5.36	0.4	–
AAA A58G	1.36	0.18	–
AAA A58C	3.74	0.97	0.6
AAA A58T	4.31	0.93	0.25
TAA A58C T59A	5.25	0.4	–
GAA A58G	0.563	0.8	0.26
GAA A58C	0.759	0.41	0.33
GAA A58T	0.581	0.48	0.32
GAA A33T A58T	6.03	0.25	–

Variant	tRNA Pol-III promoter activity (log2) [1]	tRNA 3' processing efficiency [2]	tRNA 5' processing efficiency [3]
GAA A20G T53G	0.201	0.25	–
GAA A20T G64A	5.53	0.33	–
TAA A58C	-0.434	0.57	–
TAA A58G	0.293	0.27	–
TAA A58T	0.701	0.31	–
TAA A58G T59G	3.43	0.21	–
TAA A58G T59A	3.73	0.29	–
GAA A20G T54A	-0.747	0.5	0.25
CAA A20G T59G	4.34	0.25	–
GAA A20T T53A	2.97	0.37	–
GAA A20T T53G	2.15	0.33	0.33
GAA A20T T53C	0.723	0.26	0.33
GAA A58G T59G	2.83	0.26	–
GAA A58G T59C	3.12	0.53	–
GAA A58G T59A	3.23	0.18	–
AAA A20T C55A	3.9	0.6	–
AAA A20T C55T	2.55	0.2	–
GAA A20T C55T T59A	4.21	0.33	–
GAA A20T C55G T59C	4.26	0.57	–
TAA A20T T54A	6.75	0.43	–
GAA A20T G50A	7.94	0.56	–
GAA A20G C55G	-0.073	0.17	–
